In patent US9047503B2, “System and method for automated biological cell assay data analysis” (GE HEALTHCARE UK LIMITED, priority 2010, dated 2015):
Some of these results come from one statement about several compounds together.

Test system: mitochondrial membrane potential
Type: cell-based
Details: two drug concentrations (high, low); 5-hour time course; FIGS. 14 to 17
Experimental: Various examples describing various real-life responses obtained using the mitochondrial marker TMRM will now be given. In actual images of cells stained with TMRM, the level of fluorescence intensity is related to the mitochondrial membrane potential, loss of which can be an indicator of cytotoxicity.
However, in order to verify further the robustness of the developed methods, these algorithms were tested on FOV-averaged data generated from a real toxicity assay. The cell-based experiment involved the influence of several drugs and the applications of two fluorescent markers during a 5-hour time course. The general background for such an experimental study is outlined in the article by O'Brien et al.
The second example analyzed a mitochondrial marker (TMRM) response. […] It was assumed that all cells started reacting immediately after drug addition. The reaction of a mitochondrial potential to a perturbation (i.e. a drug) is considered to be potentially very diverse.
The expression defined in Equation 16 above is very flexible, and uses as a fitting parameter the single time scale (“τ”), amplitude (“range”) and another parameter (“α”) for controlling response nonlinearity.
The TMRM response was taken for two values of drug concentration, denoted “high” and “low”.
Data fitting was performed using the technique discussed in relation to Equation 16, above. […]

SMILES	TMRM level (range; raised mitochondrial activity, hormesis)
CCN(CC)Cc1cc(Nc2ccnc3cc(Cl)ccc23)ccc1O [amodiaquine]	> 100 % of the TMRM level
COc1cc([C@@H]2c3cc4c(cc3[C@@H](O[C@@H]3O[C@@H]5CO[C@@H](C)O[C@H]5[C@H](O)[C@H]3O)[C@H]3COC(=O)[C@H]23)OCO4)cc(OC)c1O [etoposide]	> 100 % of the TMRM level
